These results are taken from patent publication US8470548.

Chains of the proteins cited; added tags and fusions are not shown.
UniProt P28334: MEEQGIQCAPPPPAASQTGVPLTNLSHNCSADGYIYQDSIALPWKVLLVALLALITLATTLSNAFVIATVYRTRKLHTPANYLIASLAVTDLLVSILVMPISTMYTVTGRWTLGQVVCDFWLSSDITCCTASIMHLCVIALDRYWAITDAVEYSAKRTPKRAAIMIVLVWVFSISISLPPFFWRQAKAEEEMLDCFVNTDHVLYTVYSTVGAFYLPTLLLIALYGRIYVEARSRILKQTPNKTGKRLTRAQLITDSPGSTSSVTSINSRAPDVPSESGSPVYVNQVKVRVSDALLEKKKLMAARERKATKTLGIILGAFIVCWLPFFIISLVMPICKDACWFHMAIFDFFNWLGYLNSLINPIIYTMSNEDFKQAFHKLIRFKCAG
UniProt P08207: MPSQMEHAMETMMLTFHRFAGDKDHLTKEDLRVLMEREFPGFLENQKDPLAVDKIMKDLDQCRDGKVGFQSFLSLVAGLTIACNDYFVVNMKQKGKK

Results are given in words; binding and its absence hold for the method and conditions named. In cells and extracts the contact can be indirect. Some results given as binding are weak or reduced against the parent protein; the word gives no strength.

The assay has as its target 5-HT1B receptor of mouse brain tissue (cerebral cortex) (mouse) (UniProt P28334). The experiment in a line: co-immunoprecipitation from mouse cerebral cortex extracts with polyclonal 5-HT1B receptor antibody, immunoblot for p11. In general terms: In western blotting, separated proteins are transferred to a membrane and probed.

As to “p11 of mouse brain tissue (cerebral cortex) (from UniProt P08207 1-97)”, the binding result is “binds”.
